Our source for the log2 fold change values is the supplement of paper PMC10849652.

Chains of the proteins cited; added tags and fusions are not shown. Lines headed by an entry give the natural chain unless they say otherwise; changes in a name come on top.
UniProt O60671: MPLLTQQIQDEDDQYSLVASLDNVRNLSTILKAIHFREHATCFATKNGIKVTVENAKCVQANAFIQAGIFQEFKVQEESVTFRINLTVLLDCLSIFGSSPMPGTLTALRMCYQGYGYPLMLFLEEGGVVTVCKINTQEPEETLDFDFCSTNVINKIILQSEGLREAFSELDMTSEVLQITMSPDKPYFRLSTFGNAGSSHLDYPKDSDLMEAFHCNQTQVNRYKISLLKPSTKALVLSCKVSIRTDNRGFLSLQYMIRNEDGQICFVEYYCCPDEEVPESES
UniProt Q7Z6M1: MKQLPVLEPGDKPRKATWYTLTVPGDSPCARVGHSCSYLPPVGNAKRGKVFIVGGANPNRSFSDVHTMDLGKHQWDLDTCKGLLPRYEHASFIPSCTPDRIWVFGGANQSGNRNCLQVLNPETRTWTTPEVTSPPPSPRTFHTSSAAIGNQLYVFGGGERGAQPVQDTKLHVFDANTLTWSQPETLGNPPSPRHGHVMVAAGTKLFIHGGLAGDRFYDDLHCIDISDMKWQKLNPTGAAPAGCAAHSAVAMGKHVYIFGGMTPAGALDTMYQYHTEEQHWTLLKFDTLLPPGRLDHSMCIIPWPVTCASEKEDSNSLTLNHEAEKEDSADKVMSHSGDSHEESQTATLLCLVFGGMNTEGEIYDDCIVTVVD
UniProt Q96S59, whole entry, looked up: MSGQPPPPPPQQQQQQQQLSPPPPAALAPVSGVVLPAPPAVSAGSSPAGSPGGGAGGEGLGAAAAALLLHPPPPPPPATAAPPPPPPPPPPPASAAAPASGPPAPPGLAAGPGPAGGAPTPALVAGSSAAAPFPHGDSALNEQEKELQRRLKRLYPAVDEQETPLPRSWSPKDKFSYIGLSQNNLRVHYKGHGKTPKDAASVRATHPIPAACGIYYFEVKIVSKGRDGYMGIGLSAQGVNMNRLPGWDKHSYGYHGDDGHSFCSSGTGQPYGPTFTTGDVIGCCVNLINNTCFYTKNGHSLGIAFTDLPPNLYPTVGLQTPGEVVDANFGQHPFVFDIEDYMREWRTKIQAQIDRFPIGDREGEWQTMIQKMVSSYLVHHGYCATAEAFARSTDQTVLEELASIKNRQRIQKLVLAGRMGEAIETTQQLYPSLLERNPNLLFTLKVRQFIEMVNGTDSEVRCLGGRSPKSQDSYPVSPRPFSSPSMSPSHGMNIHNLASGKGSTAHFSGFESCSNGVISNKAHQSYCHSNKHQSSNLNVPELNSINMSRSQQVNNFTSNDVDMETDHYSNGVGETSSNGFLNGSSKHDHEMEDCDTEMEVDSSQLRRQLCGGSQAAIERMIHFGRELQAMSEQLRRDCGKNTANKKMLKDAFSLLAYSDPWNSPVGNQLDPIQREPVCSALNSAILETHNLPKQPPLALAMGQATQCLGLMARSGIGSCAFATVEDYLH
UniProt O43502: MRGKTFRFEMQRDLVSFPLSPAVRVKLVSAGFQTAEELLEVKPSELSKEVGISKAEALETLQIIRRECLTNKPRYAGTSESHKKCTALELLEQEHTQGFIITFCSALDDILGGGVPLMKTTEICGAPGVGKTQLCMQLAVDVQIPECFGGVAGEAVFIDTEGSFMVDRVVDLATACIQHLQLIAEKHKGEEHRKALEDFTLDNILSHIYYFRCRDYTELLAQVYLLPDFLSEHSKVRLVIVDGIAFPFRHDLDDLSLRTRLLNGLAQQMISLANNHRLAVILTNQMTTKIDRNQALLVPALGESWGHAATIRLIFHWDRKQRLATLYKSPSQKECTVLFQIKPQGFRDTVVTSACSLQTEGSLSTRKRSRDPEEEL
UniProt Q9UJ41, whole entry, looked up: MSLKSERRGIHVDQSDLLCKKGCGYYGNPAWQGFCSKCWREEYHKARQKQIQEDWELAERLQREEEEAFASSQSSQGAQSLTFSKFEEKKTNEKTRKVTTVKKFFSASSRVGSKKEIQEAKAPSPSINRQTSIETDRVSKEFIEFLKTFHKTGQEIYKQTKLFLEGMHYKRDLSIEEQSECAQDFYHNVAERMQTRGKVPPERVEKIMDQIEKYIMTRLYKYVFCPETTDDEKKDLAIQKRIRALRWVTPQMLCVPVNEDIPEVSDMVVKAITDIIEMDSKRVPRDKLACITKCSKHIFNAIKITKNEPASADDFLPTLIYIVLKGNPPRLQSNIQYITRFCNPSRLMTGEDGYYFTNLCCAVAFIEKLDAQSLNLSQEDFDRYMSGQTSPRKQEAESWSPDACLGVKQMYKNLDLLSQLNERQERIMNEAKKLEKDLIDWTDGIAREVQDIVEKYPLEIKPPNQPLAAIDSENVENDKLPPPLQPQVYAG
UniProt O60518: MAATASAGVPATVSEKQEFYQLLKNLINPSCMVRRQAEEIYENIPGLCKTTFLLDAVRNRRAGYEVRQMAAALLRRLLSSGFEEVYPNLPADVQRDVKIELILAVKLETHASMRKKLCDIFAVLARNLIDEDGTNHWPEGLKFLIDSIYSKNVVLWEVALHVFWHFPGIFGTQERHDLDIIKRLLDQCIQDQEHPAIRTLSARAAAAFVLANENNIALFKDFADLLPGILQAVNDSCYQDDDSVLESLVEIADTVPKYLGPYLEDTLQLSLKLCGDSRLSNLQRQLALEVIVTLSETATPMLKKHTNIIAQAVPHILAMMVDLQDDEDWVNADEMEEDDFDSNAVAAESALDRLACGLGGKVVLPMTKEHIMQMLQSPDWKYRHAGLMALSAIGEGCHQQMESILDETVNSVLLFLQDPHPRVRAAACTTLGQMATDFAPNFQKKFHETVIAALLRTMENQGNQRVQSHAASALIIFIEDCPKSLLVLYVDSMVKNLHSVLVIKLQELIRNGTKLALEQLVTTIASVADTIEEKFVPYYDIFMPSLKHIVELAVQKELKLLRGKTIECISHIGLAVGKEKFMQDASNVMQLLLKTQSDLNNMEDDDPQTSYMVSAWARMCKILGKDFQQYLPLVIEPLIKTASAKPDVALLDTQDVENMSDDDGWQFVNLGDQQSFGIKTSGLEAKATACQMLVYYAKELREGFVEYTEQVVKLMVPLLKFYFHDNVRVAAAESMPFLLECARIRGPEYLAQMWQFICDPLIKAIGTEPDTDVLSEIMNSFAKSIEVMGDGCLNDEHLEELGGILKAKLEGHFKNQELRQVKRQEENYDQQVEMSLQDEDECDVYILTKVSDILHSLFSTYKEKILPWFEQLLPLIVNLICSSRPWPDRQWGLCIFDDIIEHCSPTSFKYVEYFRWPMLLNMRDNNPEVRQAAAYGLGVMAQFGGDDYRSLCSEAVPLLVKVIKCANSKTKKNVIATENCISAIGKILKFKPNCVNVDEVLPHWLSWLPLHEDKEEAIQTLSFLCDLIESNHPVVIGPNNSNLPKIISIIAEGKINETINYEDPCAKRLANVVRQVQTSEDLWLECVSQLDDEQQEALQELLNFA
UniProt Q15276: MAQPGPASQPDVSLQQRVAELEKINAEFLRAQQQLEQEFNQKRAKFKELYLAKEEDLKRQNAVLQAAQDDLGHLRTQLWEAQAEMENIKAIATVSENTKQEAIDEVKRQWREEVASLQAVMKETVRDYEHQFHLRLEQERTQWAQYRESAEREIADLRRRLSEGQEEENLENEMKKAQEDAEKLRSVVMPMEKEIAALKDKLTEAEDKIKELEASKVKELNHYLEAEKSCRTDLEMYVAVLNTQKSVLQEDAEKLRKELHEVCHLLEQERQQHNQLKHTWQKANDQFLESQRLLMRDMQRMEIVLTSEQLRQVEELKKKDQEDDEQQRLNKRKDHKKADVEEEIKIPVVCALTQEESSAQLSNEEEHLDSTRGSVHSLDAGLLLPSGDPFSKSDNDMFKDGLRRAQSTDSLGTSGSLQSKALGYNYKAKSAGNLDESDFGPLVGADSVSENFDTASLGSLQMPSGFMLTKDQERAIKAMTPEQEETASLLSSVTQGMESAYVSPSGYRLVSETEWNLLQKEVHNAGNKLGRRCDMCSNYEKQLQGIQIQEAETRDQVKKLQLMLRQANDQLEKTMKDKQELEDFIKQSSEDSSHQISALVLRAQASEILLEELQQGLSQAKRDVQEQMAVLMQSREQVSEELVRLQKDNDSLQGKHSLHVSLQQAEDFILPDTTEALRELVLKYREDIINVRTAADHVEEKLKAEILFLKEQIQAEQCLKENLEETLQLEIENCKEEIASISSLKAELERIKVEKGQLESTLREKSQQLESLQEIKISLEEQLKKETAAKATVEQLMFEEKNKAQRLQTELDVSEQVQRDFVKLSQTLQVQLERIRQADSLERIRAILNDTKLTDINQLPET
UniProt Q9UI14, whole entry, looked up: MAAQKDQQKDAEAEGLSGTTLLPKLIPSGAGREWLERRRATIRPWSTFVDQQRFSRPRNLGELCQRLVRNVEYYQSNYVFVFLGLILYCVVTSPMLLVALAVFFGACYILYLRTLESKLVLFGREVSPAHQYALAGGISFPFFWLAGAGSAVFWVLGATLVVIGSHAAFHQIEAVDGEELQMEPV
UniProt P61020: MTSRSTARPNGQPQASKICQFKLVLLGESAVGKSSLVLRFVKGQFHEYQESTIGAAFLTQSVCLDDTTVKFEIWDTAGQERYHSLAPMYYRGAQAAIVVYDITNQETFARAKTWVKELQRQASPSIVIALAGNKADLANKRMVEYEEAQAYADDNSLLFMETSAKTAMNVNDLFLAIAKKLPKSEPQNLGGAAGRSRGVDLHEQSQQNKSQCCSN
UniProt Q9NRW1: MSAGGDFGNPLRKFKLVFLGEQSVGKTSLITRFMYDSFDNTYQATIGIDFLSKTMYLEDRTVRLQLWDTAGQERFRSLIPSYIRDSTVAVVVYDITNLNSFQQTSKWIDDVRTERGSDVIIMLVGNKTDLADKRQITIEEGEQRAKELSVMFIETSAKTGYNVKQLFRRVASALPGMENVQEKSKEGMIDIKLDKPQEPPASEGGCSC
UniProt P20339: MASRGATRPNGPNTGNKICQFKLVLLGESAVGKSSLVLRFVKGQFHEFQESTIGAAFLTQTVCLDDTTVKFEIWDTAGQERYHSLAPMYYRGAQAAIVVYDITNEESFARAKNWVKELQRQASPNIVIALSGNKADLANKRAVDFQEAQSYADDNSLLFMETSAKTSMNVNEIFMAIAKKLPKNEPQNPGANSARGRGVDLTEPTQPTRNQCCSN
UniProt Q969Q5: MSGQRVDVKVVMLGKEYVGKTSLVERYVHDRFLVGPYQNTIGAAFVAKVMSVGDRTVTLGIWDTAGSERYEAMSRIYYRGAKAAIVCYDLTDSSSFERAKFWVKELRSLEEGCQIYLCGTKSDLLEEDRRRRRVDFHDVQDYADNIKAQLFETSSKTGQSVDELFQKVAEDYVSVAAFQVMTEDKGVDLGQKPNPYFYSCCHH
UniProt Q53H96: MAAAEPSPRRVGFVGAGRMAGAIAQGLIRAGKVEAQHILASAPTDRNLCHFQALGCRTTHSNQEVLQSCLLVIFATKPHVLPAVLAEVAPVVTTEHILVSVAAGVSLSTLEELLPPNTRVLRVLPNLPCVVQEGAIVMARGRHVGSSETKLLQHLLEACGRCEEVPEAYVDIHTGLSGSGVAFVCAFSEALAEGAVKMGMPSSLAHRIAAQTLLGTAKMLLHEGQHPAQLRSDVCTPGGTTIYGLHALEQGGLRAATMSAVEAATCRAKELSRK
UniProt P61225: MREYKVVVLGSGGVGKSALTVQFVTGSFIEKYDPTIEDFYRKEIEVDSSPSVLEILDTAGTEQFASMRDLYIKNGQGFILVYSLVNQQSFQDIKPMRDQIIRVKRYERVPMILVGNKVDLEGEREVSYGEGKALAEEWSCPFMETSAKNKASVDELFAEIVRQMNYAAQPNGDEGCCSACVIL
UniProt Q92930: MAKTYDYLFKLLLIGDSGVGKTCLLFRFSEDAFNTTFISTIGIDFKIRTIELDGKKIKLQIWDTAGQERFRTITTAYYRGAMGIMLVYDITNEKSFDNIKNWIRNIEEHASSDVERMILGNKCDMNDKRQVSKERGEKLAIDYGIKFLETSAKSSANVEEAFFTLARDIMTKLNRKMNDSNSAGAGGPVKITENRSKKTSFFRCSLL
UniProt P20340: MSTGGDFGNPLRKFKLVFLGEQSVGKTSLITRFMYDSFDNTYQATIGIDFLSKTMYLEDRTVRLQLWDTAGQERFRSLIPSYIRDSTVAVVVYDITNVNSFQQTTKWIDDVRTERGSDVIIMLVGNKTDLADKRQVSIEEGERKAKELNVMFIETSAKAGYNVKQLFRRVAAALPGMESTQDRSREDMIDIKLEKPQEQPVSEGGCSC
UniProt Q9NX57: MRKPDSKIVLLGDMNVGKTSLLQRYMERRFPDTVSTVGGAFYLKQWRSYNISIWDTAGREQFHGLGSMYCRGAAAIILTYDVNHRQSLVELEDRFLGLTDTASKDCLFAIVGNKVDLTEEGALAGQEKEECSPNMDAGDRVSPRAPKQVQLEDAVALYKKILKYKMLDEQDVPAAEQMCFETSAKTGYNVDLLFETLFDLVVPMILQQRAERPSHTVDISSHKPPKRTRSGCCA
UniProt Q9Y3L5: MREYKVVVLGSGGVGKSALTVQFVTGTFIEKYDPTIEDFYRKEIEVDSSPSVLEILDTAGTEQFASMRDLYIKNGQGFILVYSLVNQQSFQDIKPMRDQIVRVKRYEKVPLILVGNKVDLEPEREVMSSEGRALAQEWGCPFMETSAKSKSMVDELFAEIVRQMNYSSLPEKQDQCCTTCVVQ

Some of the results follow.

Compound in the assay: CC(C)C1=C2N=C(C=C(N2N=C1)NCC3=CC=CC=C3)NCCCCCCN
In words: log2 fold change, soluble protein after heating vs DMSO (PISA); higher = thermal stabilisation; K562 lysate, 10 uM; active = over 0.2 and 3.5 SD of the protein, either way, in both replicates (recomputed). The method, boiled down: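 Quantification was by TMTpro 16plex LC-MS/MS with equalised channel sums, applied to the supernatant after 21,000xg for 90 min. Samples were crude K562 extract at 1 mg/mL protein in PBS pH 7.4 with 1 mM MgCl2, treated with 10 μM compound for 30 min, heated for 3 min across 48°C-58°C, pooled and brought to 0.5% NP-40 at 4°C. Values are log-two fold changes in thermal stability relative to solvent controls, from duplicates.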
On to RACGAP1 (UniProt Q9H0H5), for which the log2 fold change was inactive: 0.012.

As for RAD1 (UniProt O60671), the log2 fold change was inactive: 0.06.

Consider RAC2 (UniProt P15153), for which the log2 fold change is inactive: 0.047.

For RABEPK (UniProt Q7Z6M1), the log2 fold change is inactive: 0.018.

As for RANBP9 (UniProt Q96S59), the log2 fold change was inactive: 0.082.

As to RAD51C (UniProt O43502), the log2 fold change was inactive: 0.067.

Turning to RABGEF1 isoform 3 (UniProt Q9UJ41), the log2 fold change is inactive: -0.035.

RANBP6 (UniProt O60518): the log2 fold change is inactive: -0.034.

RABEP1 (UniProt Q15276): the log2 fold change was inactive: -0.023.

Turning to RALGAPA1 isoform 6 (UniProt Q6GYQ0), the log2 fold change was inactive: -0.01.

Take RABAC1 (UniProt Q9UI14): the log2 fold change is inactive: 0.

Consider RAB5B (UniProt P61020), for which the log2 fold change is inactive: 0.009.

On to RAB6B (UniProt Q9NRW1), for which the log2 fold change is inactive: -0.009.

Regarding RAB5A (UniProt P20339), the log2 fold change is inactive: -0.003.

Take RAB24 (UniProt Q969Q5): the log2 fold change was inactive: -0.005.

In the case of PYCR3 (UniProt Q53H96), the log2 fold change is inactive: -0.03.

For RAB10 (UniProt P61026), the log2 fold change is inactive: 0.026.

Consider RAN (UniProt P62826), for which the log2 fold change was inactive: 0.016.

Take RAP2B (UniProt P61225): the log2 fold change is inactive: -0.017.

In the case of RAB8B (UniProt Q92930), the log2 fold change was inactive: -0.003.

Take RAB6A isoform 4 (UniProt P20340): the log2 fold change was inactive: -0.001.

Consider RAB20 (UniProt Q9NX57), for which the log2 fold change is inactive: -0.032.

Turning to RAP2C (UniProt Q9Y3L5), the log2 fold change is inactive: 0.012.
